This test deals with P388 leukemia ip, CD2F1 mice, survival T/C. As to the kind of experiment: NCI In Vivo Anticancer Drug Screen. Data for tumor model P388 Leukemia (intraperitoneal) in CD2F1 (CDF1) mice. As to conditions: T/C endpoint: median survival time, higher T/C = longer survival.
Where [1] appears, read: dose: 50.0 mg/kg/injection, schedule: Q01DX009 (ip), vehicle: Klucel (hydroxypropylcellulose) (HPC).
The mark [2] stands for this setting: dose: 100.0 mg/kg/injection, schedule: Q01DX009 (ip), vehicle: Klucel (hydroxypropylcellulose) (HPC).
Where [3] appears, read: dose: 200.0 mg/kg/injection, schedule: Q01DX009 (ip), vehicle: Klucel (hydroxypropylcellulose) (HPC).
The mark [4] stands for this setting: dose: 120.0 mg/kg/injection, schedule: Q01DX005 (ip), vehicle: saline with Tween-80.
[5] abbreviates: dose: 240.0 mg/kg/injection, schedule: Q01DX005 (ip), vehicle: saline with Tween-80.
The mark [6] stands for this setting: dose: 240.0 mg/kg/injection, schedule: Q01DX005 (ip), vehicle: saline.
[7] abbreviates: dose: 100.0 mg/kg/injection, schedule: Q01DX009 (ip), vehicle: saline with Tween-80.
Setting [8] is: dose: 200.0 mg/kg/injection, schedule: Q01DX009 (ip), vehicle: saline with Tween-80.
[9] abbreviates: dose: 200.0 mg/kg/injection, schedule: Q01DX001 (ip), vehicle: Klucel (hydroxypropylcellulose) (HPC).

In PubChem BioAssay AID330 (DTP/NCI, 2004) one finds survivor count and T/C data, which are given here for 25 compounds.

The list is a part of this screen's results and no random one: it is rich in T/C values a quarter to a half above the control, in often repeated tests (any T/C) and in doses without a T/C. Other doses and runs of a compound stand elsewhere. T/C is the treated group as % of the vehicle group. Some doses have a count of surviving animals in place of a T/C: the source files T/C as zero there, which appears to mark a toxic dose or a test without result, not a measured value. Some survivor counts are full or nearly so, which does not show that the dose was tolerated: the source hardly ever lists a survival T/C far under the control, and the zero likely stands for such cases as well. Survivors were counted at the toxicity check, usually on the fifth day, unless a day is given; later deaths do not show. Schedules are NCI's codes, taken here to give the interval after Q, in days (D) or hours (H), and the number of doses after X. Some entries hold several experiments; the results are listed from low to high. For survival time, this PubChem deposit counts one and a half times the control or more as active, and values a quarter to a half above the control carry no call in these data; other NCI protocols may use other cut-offs. Some T/C values are followed by the survivors on the day toxicity was checked, most often the fifth; where none is given, no animal had died by that day.

Turning to `CSC(=S)SC(SC)S(C)(=O)=O` (stereo unspecified), the survivor count is 0 of 6 and 1 of 6 under setting [1]; 0 of 6 under setting [2]; 0 of 6 under setting [3].
With `ClCCCSSCCCCl`, the T/C was 137 % of control under setting [4] and 128 % of control [5 of 6 alive] under setting [5].
Regarding `COc1nc(N2CCNCC2)nc2c1CCCC2`, the survivor count under setting [6] is given as 0 of 6.
`CC1=C(C(=O)NCc2ccccc2)C(c2cccc([N+](=O)[O-])c2)C(C(=O)NCc2ccccc2)=C(C)N1`: the survivor count is 6 of 6 (dose: 60.0 mg/kg/injection, schedule: Q01DX005 (ip), vehicle: Klucel (hydroxypropylcellulose) (HPC)); 6 of 6 (dose: 120.0 mg/kg/injection, schedule: Q01DX005 (ip), vehicle: Klucel (hydroxypropylcellulose) (HPC)); 6 of 6 (dose: 240.0 mg/kg/injection, schedule: Q01DX005 (ip), vehicle: Klucel (hydroxypropylcellulose) (HPC)).
For `NC(=S)N/N=C/c1cccc(CC(O)(C(F)(F)F)C(F)(F)F)n1`, the survivor count (dose: 50.0 mg/kg/injection, schedule: Q04DX003 (ip), vehicle: saline with Tween-80) is 4 of 6.
As to `Cc1c2c(ccc3ccccc32)c[n+]2ccccc12`, the survivor count runs as follows: (dose: 25.0 mg/kg/injection, schedule: Q04DX003 (ip), vehicle: other) 2 of 6; (dose: 50.0 mg/kg/injection, schedule: Q04DX003 (ip), vehicle: other) 0 of 6; (dose: 100.0 mg/kg/injection, schedule: Q04DX003 (ip), vehicle: other) 0 of 6. For the same compound, the T/C (dose: 25.0 mg/kg/injection, schedule: Q04DX003 (ip), vehicle: saline) was 136 % of control [5 of 6 alive].
For the compound `O=c1cc(C(F)(F)F)c2cc3c(cc2o1)NCCC3`, the survivor count under setting [5] is 6 of 6.
For `O=C(O)C(Cc1ccc(N(CCCl)CCCl)cc1)C(=O)O`, the survivor count under setting [7] is listed as 1 of 6 and the survivor count under setting [8] is reported as 0 of 6.
With `CN1CCC(=C(C#N)C#N)CC1`, under setting [7], the survivor count was 3 of 6.
Consider `COC(=O)C1CC(OC(C)=O)C(O)C(O)C1OC(C)=O.[O]=[Os]=[O]` (stereo unspecified), for which the T/C (dose: 100.0 mg/kg/injection, schedule: Q01DX001 (ip), vehicle: saline) is 127 % of control. Besides, the survivor count (dose: 400.0 mg/kg/injection, schedule: Q01DX001 (ip), vehicle: saline) is recorded as 0 of 6.
Consider `C[CH2][Sn][CH2]C.O=C(CC(=O)c1ccccc1)c1ccccc1.O=C(CC(=O)c1ccccc1)c1ccccc1`, for which the survivor count under setting [9] is reported as 6 of 6.
As to `CC(=O)Nc1nc(C)c(CCCNS(=O)(=O)c2ccc([N+](=O)[O-])cc2)c(=O)[nH]1`, the survivor count under setting [4] is recorded as 6 of 6 and the survivor count under setting [5] is reported as 6 of 6.
As for `CCn1c(Cl)c(/C=N/NS(=O)(=O)c2ccc(C)cc2)c2cccc(/C=N\NS(=O)(=O)c3ccc(C)cc3)c21`, under setting [9], the survivor count is listed as 6 of 6.
`COc1ccc(CSC(=S)Nc2ccc(Cl)c(Cl)c2)cc1`: the survivor count under setting [3] was 6 of 6 and the survivor count (dose: 400.0 mg/kg/injection, schedule: Q01DX009 (ip), vehicle: Klucel (hydroxypropylcellulose) (HPC)) is 3 of 6.
For `CCCCCCc1cc(-c2cc(CCCCCC)nc(N)n2)nc(N)n1`, the survivor count under setting [6] was 3 of 6.
For the compound `CCOc1ccc2nc3ccccc3c(N)c2c1`, the T/C was 129 % of control (dose: 15.0 mg/kg/injection, schedule: Q01DX005 (ip), vehicle: saline with Tween-80) and 131 % of control (dose: 30.0 mg/kg/injection, schedule: Q01DX005 (ip), vehicle: saline with Tween-80). The survivor count (dose: 60.0 mg/kg/injection, schedule: Q01DX005 (ip), vehicle: saline with Tween-80) is 3 of 6 and 4 of 6; the survivor count under setting [4] is listed as 0 of 6; the survivor count under setting [5] was 0 of 6.
For `C=CCn1cnc2c(=S)nc[nH]c21`, under “dose: 400.0 mg/kg/injection, schedule: Q04DX003 (ip), vehicle: saline with Tween-80”, the survivor count is on record as 6 of 6.
Consider `CN1c2ccccc2S(=O)(=O)n2c(CCc3ccccc3)nnc21`, for which, under setting [4], the survivor count is given as 6 of 6.
Regarding `CCCCCCCCCCCCCCCCCC(=O)OCC(=O)OCC(=O)[C@]1(O)Cc2c(O)c3c(c(O)c2[C@@H](OC2CC(N)C(O)C(C)O2)C1)C(=O)c1c(OC)cccc1C3=O` (stereo partly specified), the survivor count is, setting by setting: (dose: 12.5 mg/kg/injection, schedule: Q01DX009 (ip), vehicle: water) 6 of 6; (dose: 25.0 mg/kg/injection, schedule: Q01DX009 (ip), vehicle: water) 1 of 6.
In the case of `O=[N+]([O-])c1ccc2nc(CCl)[nH]c2c1`, the survivor count by setting is: under setting [7], 5 of 6; under setting [8], 3 of 6; (dose: 400.0 mg/kg/injection, schedule: Q01DX009 (ip), vehicle: saline with Tween-80) 0 of 6.
Regarding `CCCCCCCCCOCC(COP(=O)([O-])OCC[N+](C)(C)C)OC` (stereo unspecified), under “dose: 200.0 mg/kg/injection, schedule: Q01DX005 (ip), vehicle: saline”, the survivor count is 3 of 5.
Take `CCN1CCC[C@]2(C)[C@H]3CC[C@@]4(C)[C@@H](CC[C@]4(C)O)[C@@H]3CC[C@@H]12`: the survivor count was 0 of 6 (dose: 100.0 mg/kg/injection, schedule: Q01DX005 (ip), vehicle: Klucel (hydroxypropylcellulose) (HPC)) and 0 of 6 (dose: 200.0 mg/kg/injection, schedule: Q01DX005 (ip), vehicle: Klucel (hydroxypropylcellulose) (HPC)).
As for `Cc1cc(NCCCCCCCCNc2cc(C)nc3cc([N+](=O)[O-])ccc23)c2ccc([N+](=O)[O-])cc2n1`, the survivor count by setting is: (dose: 50.0 mg/kg/injection, schedule: Q01DX009 (ip), vehicle: water) 5 of 6; (dose: 100.0 mg/kg/injection, schedule: Q01DX009 (ip), vehicle: water) 6 of 6; (dose: 200.0 mg/kg/injection, schedule: Q01DX009 (ip), vehicle: water) 6 of 6.
Turning to `CCCN1C[C@H](CSC)C[C@@H]2c3cccc4[nH]cc(c34)C[C@H]21`, the survivor count reads like this: under setting [1], 6 of 6; under setting [2], 3 of 6; under setting [3], 6 of 6.
Consider `CN=c1s[se]c2ccccc12`, for which the survivor count was 0 of 6 and 3 of 6 under setting [1]; 0 of 6 under setting [2]; 0 of 6 under setting [3].
